Four molecules from US20240270874A1 can be followed below.

Protein sequences, listed by entry. Tags and fused reporters are not part of them. Lines headed by an entry give the natural chain unless they say otherwise; changes in a name come on top. Residues count along the entry.
UniProt Q86Z14: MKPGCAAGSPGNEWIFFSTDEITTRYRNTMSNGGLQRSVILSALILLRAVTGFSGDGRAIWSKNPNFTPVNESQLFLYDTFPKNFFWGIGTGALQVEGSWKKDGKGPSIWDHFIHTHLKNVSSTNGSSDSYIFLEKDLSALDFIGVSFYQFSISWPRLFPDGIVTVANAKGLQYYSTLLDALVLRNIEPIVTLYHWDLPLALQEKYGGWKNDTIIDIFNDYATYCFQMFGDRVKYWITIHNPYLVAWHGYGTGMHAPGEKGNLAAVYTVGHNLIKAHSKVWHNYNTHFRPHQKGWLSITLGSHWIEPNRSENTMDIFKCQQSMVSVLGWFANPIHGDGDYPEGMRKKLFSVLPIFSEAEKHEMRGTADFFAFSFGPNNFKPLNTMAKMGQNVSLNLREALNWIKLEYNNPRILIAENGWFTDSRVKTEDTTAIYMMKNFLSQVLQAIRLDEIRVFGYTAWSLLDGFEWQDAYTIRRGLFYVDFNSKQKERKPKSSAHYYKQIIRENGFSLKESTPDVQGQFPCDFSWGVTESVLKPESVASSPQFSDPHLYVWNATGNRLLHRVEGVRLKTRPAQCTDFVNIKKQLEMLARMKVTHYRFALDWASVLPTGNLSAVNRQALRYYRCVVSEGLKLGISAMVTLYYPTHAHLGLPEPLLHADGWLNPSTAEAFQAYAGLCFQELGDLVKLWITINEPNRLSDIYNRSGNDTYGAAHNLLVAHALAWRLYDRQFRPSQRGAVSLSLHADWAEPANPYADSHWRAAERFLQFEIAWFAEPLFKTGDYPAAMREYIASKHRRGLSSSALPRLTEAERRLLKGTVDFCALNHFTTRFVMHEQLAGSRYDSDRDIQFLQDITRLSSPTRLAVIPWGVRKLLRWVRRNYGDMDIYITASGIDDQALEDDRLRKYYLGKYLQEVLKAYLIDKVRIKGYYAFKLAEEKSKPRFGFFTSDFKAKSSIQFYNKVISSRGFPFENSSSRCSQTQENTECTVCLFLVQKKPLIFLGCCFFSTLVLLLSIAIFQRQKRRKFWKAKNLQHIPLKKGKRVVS
hKLB (R&D, Cat. # 5889-KB): residues 53-997 of Q86Z14
UniProt P11362: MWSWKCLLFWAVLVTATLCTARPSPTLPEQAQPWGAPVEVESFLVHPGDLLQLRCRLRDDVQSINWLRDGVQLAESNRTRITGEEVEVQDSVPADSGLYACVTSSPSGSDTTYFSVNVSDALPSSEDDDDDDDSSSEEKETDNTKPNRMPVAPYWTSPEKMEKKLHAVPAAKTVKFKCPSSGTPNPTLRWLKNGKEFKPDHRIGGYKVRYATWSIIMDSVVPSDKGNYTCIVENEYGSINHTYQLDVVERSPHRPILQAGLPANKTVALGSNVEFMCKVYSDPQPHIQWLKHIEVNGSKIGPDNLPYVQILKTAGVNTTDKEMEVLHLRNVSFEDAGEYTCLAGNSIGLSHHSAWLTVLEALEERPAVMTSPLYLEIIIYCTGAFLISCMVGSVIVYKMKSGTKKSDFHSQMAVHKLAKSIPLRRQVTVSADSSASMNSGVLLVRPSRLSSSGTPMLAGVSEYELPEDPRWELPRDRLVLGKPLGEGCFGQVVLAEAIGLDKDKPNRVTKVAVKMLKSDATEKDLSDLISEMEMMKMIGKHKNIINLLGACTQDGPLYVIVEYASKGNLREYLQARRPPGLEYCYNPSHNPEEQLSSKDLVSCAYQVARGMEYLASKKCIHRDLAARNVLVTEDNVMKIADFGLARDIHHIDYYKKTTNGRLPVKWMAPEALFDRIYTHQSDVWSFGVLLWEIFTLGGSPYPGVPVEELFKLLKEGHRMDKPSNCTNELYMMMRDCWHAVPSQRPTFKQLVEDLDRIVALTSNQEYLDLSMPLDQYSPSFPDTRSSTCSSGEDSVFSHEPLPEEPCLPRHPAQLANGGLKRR

Assay [1] deals with human KLB on CHOK1-hKLB cells (human) (UniProt Q86Z14). Description: flow cytometry on CHOK1-hKLB cells. A general note: Flow cytometry measures light scatter and fluorescence of single cells or particles in a stream.
Assay [2] deals with hKLB (R&D, Cat. # 5889-KB) (human) (UniProt Q86Z14). Put plainly: SPR (Biacore). (SPR reads the build-up and loss of mass on a sensor chip optically.)
For assay [3], the target named is cynomolgus monkey KLB on CHOK1-cynoKLB cells (cynomolgus monkey). Description: flow cytometry on CHOK1-cynoKLB cells.
Assay [4] deals with human KLB&FGFR1c complex on cells (human) (UniProt Q86Z14+P11362). Description: hybridoma clone screening on recombinant cells.

These are yes or no findings as the source states them, for the method shown. Some results given as binding are weak or reduced against the parent protein; the word gives no strength.

B1: hAb99-13 (antibody, human IgG1, kappa, L234A L235A, V domains shown)
VH: EVQLVQSGAEVKKPGASVKVSCKASGYTFTNYGINWVRQAPGQRLEWMGYIYIGNVDIEYNAKFKGRVTITSDTSASTAYMELSSLRSEDTAVYYCARGRGLGHFDVWGQGTTVTVSS
VL: DIQMTQSPSSLSASVGDRVTITCRASKSISKFLAWFQQKPGKTNKLLIYSGSTLQSGVPSRFSGSGSGTDFTLTISSLQPEDFATYYCQQHNEYPWTFGGGTKVEIKR
Turning to B1, the binding entry in assay [1], in assay [2] and in assay [3] was “binds” throughout.

B2: mAb-18 (antibody, V domains shown)
VH: QVQLQQSGPELVRPGVSVKISCKGSGYTFTDYAMHWVKQTHAKSLEWIGVISTYSGTTNYNQNFKGKATVTVDKSSSTAYMELARLTSEDSAIYYCARSGPLDYWGQGTSLTVSS
VL: ENVLTQSPAIMSASPGEKVTMTCRASSSVSSSYLHWYQQKSGASPKLWIYSTSNLASGVPERFSGSGSGTSYSLTISSVEAEDAATYYCQQYSGYPLTFGSGTKLEIK
In the case of B2, in assay [4], the binding entry is “binds”.

B3: hAb18-8 (antibody, human IgG1, kappa, L234A L235A, V domains shown)
VH: EVQLVQSGAEVKKPGASVKVSCKASGYTFTDYAMHWVRQAPGQRLEWMGVISTYSGTTNYNQNFKGRVTITVDKSASTAYMELSSLRSEDTAVYYCARSGPLDYWGQGTTVTVSS
VL: ENVLTQSPDFQSVTPKEKVTITCRATSSVSSSYLHWYQQKPDQSPKLWIYSTSQLASGVPSRFSGSGSGTDYTLTINSLEAEDAATYYCQQYSGYPLTFGQGTKLEIKR
With B3, the binding result in assay [1], in assay [2] and in assay [3] was “binds” throughout.

B4: mAb-99 (antibody, V domains shown)
VH: EVQLQQSGAELVRPGSSVKMSCKTSGYTFTNYGINWVKQRPRQGLEWIGYIYIGNGDIEYNAKFKGKATLTSDTSSSTAYMQLSSLTSEDSAIYFCARGRGLGHFDVWGTGTTVTVSS
VL: DVQITQSPSYLAASPGETITINCRASKSISKFLAWFQEKPGKTNKLLIYSGSTLQSGIPSRFSGSGSGTDFTLTISGLEPEDFAMYYCQQHNEYPWTFGGGTKLEIK
Regarding B4, the binding result in assay [4] is given as “binds”.
